The values below come from article PMC7819943, “Rice protein-binding microarrays: a tool to detect cis-acting elements near promoter regions in rice”.

Chains of the proteins cited; added tags and fusions are not shown.
UniProt Q0JBA9, entry or part of it: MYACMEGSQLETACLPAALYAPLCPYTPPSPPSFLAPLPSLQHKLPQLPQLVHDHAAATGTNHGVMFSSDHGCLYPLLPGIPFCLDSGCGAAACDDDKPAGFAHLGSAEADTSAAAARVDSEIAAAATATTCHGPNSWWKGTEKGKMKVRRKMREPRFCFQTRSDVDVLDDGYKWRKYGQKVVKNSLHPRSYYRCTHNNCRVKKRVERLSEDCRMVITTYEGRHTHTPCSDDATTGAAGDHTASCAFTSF

The other results are listed elsewhere or left out.

The test deals with OsWRKY34 (Oryza sativa, UniProt Q0JBA9 1-250). As to the kind of experiment: protein-binding microarray (RPBM); PBS, 2% BSA, 51.3 ng/ul salmon testes DNA, 50 uM zinc acetate, 200 nM TF, 25 C, 1 h; high values mean tight binding. The note with it: protein: recombinant; tags: N-terminal polyhistidine and DsRed monomer fusion (pET32a); label: CyDye5-dUTP incorporated in the synthesized complementary strand; 3' TTTTT single-stranded linker to array surface; dsDNA, one strand shown. The essentials:
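The binding signal for each feature is its fluorescence intensity in arbitrary units. An Axon 4000B scanner was used to read a custom Agilent array that had been made double-stranded with Cy5-dUTP primer extension, blocked with 2% BSA, incubated at 25 °C for 1 h with 200 nM protein in PBS, 2% BSA, salmon testes DNA and 50 µM zinc acetate, and washed. The protein was an N-terminal polyhistidine–DsRed transcription factor fusion from E. coli BL21-CodonPlus, purified on Ni–NTA.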
As for “CTTCAATTGGCATCATGGATGATTTTTGTGCAGTCTATTCCGGAGTCACCTAGTGCAG”, the binding signal was 8110 fluorescence intensity (a.u.).
For the sequence “TTCTTGAATTGCTGGAGAGGGGTGGGGAAGAAAGATCGGGCGGAGTCACCTAGTGCAG”, the binding signal was 9830 fluorescence intensity (a.u.).
For the sequence “ACTACACCACTGTTCTTGTGGCTTTCAACGCTAGTATTGACGGAGTCACCTAGTGCAG”, the binding signal was 9710 fluorescence intensity (a.u.).
Regarding “TTGTACACTTATGATTTCCTATTTTTGCATATGATTTTGTCGGAGTCACCTAGTGCAG”, the binding signal is 8050 fluorescence intensity (a.u.).
The figure for “TGGGTTGTGTCTCATTTTTACTAATTTTTTTTAGTACAGACGGAGTCACCTAGTGCAG” is 10700 fluorescence intensity (a.u.); for “CTCCATCTCGCTCGGTCCCCGTCCCCAACCTGCAAACCCTCGGAGTCACCTAGTGCAG” it is 9480 fluorescence intensity (a.u.); for “CCGCTCTCCACCACTCCGCCTGCCTGCATGTCCACCGCCGCGGAGTCACCTAGTGCAG” it is 8410 fluorescence intensity (a.u.).
The figure for “ACATGCAAACACTCCAGTTATACACTTGAACTGCTTTGAACGGAGTCACCTAGTGCAG” is 9920 fluorescence intensity (a.u.); for “ACTGCTCAAGATTTGCCTTCCAGTTTACTCCATGATGACCCGGAGTCACCTAGTGCAG” it is 9080 fluorescence intensity (a.u.).
Regarding “GTTTGGTCTGTTTCTCTCAGGCCTTCTTTTTTTATTAGCCCGGAGTCACCTAGTGCAG”, the binding signal was 10200 fluorescence intensity (a.u.).
“ACGAATTCCTCAACCTTATCGATATTTTTCTCTCCTTTTTCGGAGTCACCTAGTGCAG”: the binding signal is 10100 fluorescence intensity (a.u.).
Take “AAGTGTTTCTTGGTGTATAGTATGTTTTGTTTGTTGCCATCGGAGTCACCTAGTGCAG”: the binding signal was 8040 fluorescence intensity (a.u.).
Regarding “GTGGGAGAGTGAGAGGGGCTTCGGTTTTTTTTTCTTTTTCCGGAGTCACCTAGTGCAG”, the binding signal is 11200 fluorescence intensity (a.u.).
To “CTATTTAGTCCTTGGTTAGTTCCCAATTTTTTCTTTAAACCGGAGTCACCTAGTGCAG” belongs 9700 fluorescence intensity (a.u.); to “CTCTGTTTGCCTTCTGATTTTTATTACTAGTAGCTTAATTCGGAGTCACCTAGTGCAG”, 8860 fluorescence intensity (a.u.).
For the sequence “CAAATCTGCACTTTCTACCATTTTTTCTCTGTGATGTGGCCGGAGTCACCTAGTGCAG”, the binding signal was 8800 fluorescence intensity (a.u.).
With “CCCGTTTATGTCATCTTATTGTACCCGCTCCAAACGCGTACGGAGTCACCTAGTGCAG”, the binding signal is 10000 fluorescence intensity (a.u.).
For the sequence “GCCATCTAGTTCCTCCTACCACCACGTCCTCTTTTCCTGCCGGAGTCACCTAGTGCAG”, the binding signal was 8430 fluorescence intensity (a.u.).
To “ACTGGAATTTGCTTGCGTTCGTTCGTTCGTTAACCCTAGCCGGAGTCACCTAGTGCAG” belongs 10000 fluorescence intensity (a.u.); to “AATCTCATATATTTTCATTGAATGTTTTCAAATTGTTGGTCGGAGTCACCTAGTGCAG”, 9070 fluorescence intensity (a.u.); to “CTTGCTTCTGCTTGCCCATTTGATGATTTGATTTGATTTGCGGAGTCACCTAGTGCAG”, 10900 fluorescence intensity (a.u.).
To “GCGGCGGTGGCGGCCGGGGAGGTGGGAGACAGCGGGGTGGCGGAGTCACCTAGTGCAG” belongs 16300 fluorescence intensity (a.u.).
The figure for “CCGCGCAATTGACTTTCCCGGCCGCGCACCGCACGTCGTGCGGAGTCACCTAGTGCAG” is 9210 fluorescence intensity (a.u.); for “ACCTGGCTGTGCATGTACTACCCCAATGCATTTCTCTCTCCGGAGTCACCTAGTGCAG” it is 8250 fluorescence intensity (a.u.).
With “AGGCTCAAAAGATTCGTCTCGCGGTTTCTAGGTAAGTTATCGGAGTCACCTAGTGCAG”, the binding signal was 8220 fluorescence intensity (a.u.).
Take “CTCCCGCTGCATTTGCTACCAGATCTTCCTCACCGCTAGCCGGAGTCACCTAGTGCAG”: the binding signal was 9240 fluorescence intensity (a.u.).
For “GCCAGTGCAGCCCACCCGAGGGTTTATATGCGTGCACGCACGGAGTCACCTAGTGCAG”, the binding signal was 9720 fluorescence intensity (a.u.).
To “TCGGCGGCGTTCTTCGGTTTCTCCGCTCACTTGCTCCCGCCGGAGTCACCTAGTGCAG” belongs 10500 fluorescence intensity (a.u.); to “GTACTAGGCCACACACTAACCGTGCAGCGAGCTTAAATTACGGAGTCACCTAGTGCAG”, 8550 fluorescence intensity (a.u.); to “CCCACTTATAGTTCTATTTTCTGGAATTCCCCATATATGACGGAGTCACCTAGTGCAG”, 8660 fluorescence intensity (a.u.).
Take “ACATACACATCCGCTGATAATCTCTTGACCAAACCGATCCCGGAGTCACCTAGTGCAG”: the binding signal was 8200 fluorescence intensity (a.u.).
To “GCCGACCCCGCCGCAATAACCACACCAGCTTTATCTTCCACGGAGTCACCTAGTGCAG” belongs 9800 fluorescence intensity (a.u.); to “AACCCAGCTCGTATCATGCCATATCCATCCAAAGATAATCCGGAGTCACCTAGTGCAG”, 8660 fluorescence intensity (a.u.); to “TCGGGGCGGGTCTGGGAGGGCTTGCGCTTGACACGGACGACGGAGTCACCTAGTGCAG”, 17200 fluorescence intensity (a.u.).
Turning to “TCCCCATCAGTGTTGTATCAGCCCTGTGGTCTCGCCCCAACGGAGTCACCTAGTGCAG”, the binding signal was 8120 fluorescence intensity (a.u.).
On to “GCATATTCCTAATGACAATCACTGCTTTCTTTTGATACTGCGGAGTCACCTAGTGCAG”, for which the binding signal is 10100 fluorescence intensity (a.u.).
As to “GTTACCCCGATTAGTTAGTTTATGTTGTACATGCTGTTGACGGAGTCACCTAGTGCAG”, the binding signal is 11000 fluorescence intensity (a.u.).
In the case of “TAACCAGAGTAAATTTTTGGCCAACTTAAGTGCTTTCATACGGAGTCACCTAGTGCAG”, the binding signal is 9070 fluorescence intensity (a.u.).
Consider “ACAAATCCTGGTCATTTCTTGACCGTATGAATTCTAGAAACGGAGTCACCTAGTGCAG”, for which the binding signal is 9650 fluorescence intensity (a.u.).
To “ATGCTGTCTGTACTGTCCCATATGAACTCTTCTGAACAACCGGAGTCACCTAGTGCAG” belongs 8370 fluorescence intensity (a.u.); to “TTCTGATCAAGGTTTAGACCGCCCAAGGCTTTGACCAATACGGAGTCACCTAGTGCAG”, 8800 fluorescence intensity (a.u.).
With “GCTCCGTTTTCACCCTTCGCAAACGTGCCCTTAAGACATTCGGAGTCACCTAGTGCAG”, the binding signal is 9010 fluorescence intensity (a.u.).
